{"source": "PubChem BioAssay AID493246 (Drosophila RNAi Screening Center, 2011)", "test": "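Genes fly cells need to grow and stay alive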 (primary screen)", "system": "Drosophila Kc and S2R+ cells", "reagents": "long dsRNA against Drosophila genes", "detection": "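Raw, unnormalised count of remaining cells in each well; per-plate z-scores of cell number underlie the calls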", "scale": "Kc cell number and S2R+ cell number: higher = more cells remaining", "active means": "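Counted as a hit if cell number falls by a z-score of at least 3 within its plate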", "note": "In all, the deposit lists about 21,000 reagents; this is a random part of those that have a named target and a result. Over the whole deposit, 429 (2%) were called active. 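Values are raw and not normalised between plates; calls rest on per-plate z-scores that were not deposited.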 Unmarked entries are inactive. A plus sign joins genes that one reagent is predicted to hit. The record does not give: the amount of reagent, the time to read-out."}
{"Target gene":"Vps50","PubChem SID":"SID104186702","Kc cell number, rep 1":1.37e6,"Kc cell number, rep 2":1.46e6,"S2R+ cell number, rep 1":1.25e6,"S2R+ cell number, rep 2":1.18e6}
{"Target gene":"Asator","PubChem SID":"SID104196928","Kc cell number, rep 1":1.48e6,"Kc cell number, rep 2":1.45e6,"S2R+ cell number, rep 1":1.02e6,"S2R+ cell number, rep 2":1.09e6}
{"Target gene":"Ciao1","PubChem SID":"SID104185962","Kc cell number, rep 1":1.50e6,"Kc cell number, rep 2":1.63e6,"S2R+ cell number, rep 1":1.25e6,"S2R+ cell number, rep 2":1.19e6}
{"Target gene":"CG11839","PubChem SID":"SID104194190","Kc cell number, rep 1":1.50e6,"Kc cell number, rep 2":1.51e6,"S2R+ cell number, rep 1":1.07e6,"S2R+ cell number, rep 2":1.12e6}
{"Target gene":"CG4645","PubChem SID":"SID104199699","Kc cell number, rep 1":5.13e5,"S2R+ cell number, rep 1":7.62e5}
{"Target gene":"CG3984","PubChem SID":"SID104195322","Kc cell number, rep 1":1.35e6,"Kc cell number, rep 2":1.50e6,"S2R+ cell number, rep 1":9.98e5,"S2R+ cell number, rep 2":1.15e6}
{"Target gene":"CG43367","PubChem SID":"SID104188091","Kc cell number, rep 1":1.51e6,"Kc cell number, rep 2":1.33e6,"S2R+ cell number, rep 1":1.19e6,"S2R+ cell number, rep 2":1.37e6}
{"Target gene":"CG43367","PubChem SID":"SID104188093","Kc cell number, rep 1":1.46e6,"Kc cell number, rep 2":1.35e6,"S2R+ cell number, rep 1":1.08e6,"S2R+ cell number, rep 2":1.22e6}
{"Target gene":"CG43367","PubChem SID":"SID104188101","Kc cell number, rep 1":1.44e6,"Kc cell number, rep 2":1.18e6,"S2R+ cell number, rep 1":1.14e6,"S2R+ cell number, rep 2":1.20e6}
{"Target gene":"Rab1","PubChem SID":"SID104196600","Kc cell number, rep 1":1.10e6,"Kc cell number, rep 2":1.18e6,"S2R+ cell number, rep 1":9.44e5,"S2R+ cell number, rep 2":1.04e6}
{"Target gene":"Ing3","PubChem SID":"SID104199794","Kc cell number, rep 1":1.72e6,"Kc cell number, rep 2":1.54e6,"S2R+ cell number, rep 1":1.14e6,"S2R+ cell number, rep 2":1.17e6}
{"Target gene":"Mfe2","PubChem SID":"SID104199661","Kc cell number, rep 1":6.43e5,"S2R+ cell number, rep 1":9.24e5}
{"Target gene":"RpL7-like + CG34164","PubChem SID":"SID104182628","Kc cell number, rep 1":1.39e6,"Kc cell number, rep 2":1.35e6,"S2R+ cell number, rep 1":8.73e5,"S2R+ cell number, rep 2":9.24e5}
{"Target gene":"RpL7-like + CG34164","PubChem SID":"SID104182629","Kc cell number, rep 1":1.60e6,"Kc cell number, rep 2":1.62e6,"S2R+ cell number, rep 1":1.25e6,"S2R+ cell number, rep 2":1.36e6}
{"Target gene":"Or98b","PubChem SID":"SID104196567","Kc cell number, rep 1":1.41e6,"Kc cell number, rep 2":1.47e6,"S2R+ cell number, rep 1":1.02e6,"S2R+ cell number, rep 2":1.07e6}
{"Target gene":"CG9705","PubChem SID":"SID104190886","Kc cell number, rep 1":1.65e6,"Kc cell number, rep 2":1.61e6,"S2R+ cell number, rep 1":1.18e6,"S2R+ cell number, rep 2":1.22e6}
{"Target gene":"vnc + CG42455","PubChem SID":"SID104189659","Kc cell number, rep 1":1.12e6,"Kc cell number, rep 2":1.37e6,"S2R+ cell number, rep 1":1.17e6,"S2R+ cell number, rep 2":8.76e5}
{"Target gene":"MFS1","PubChem SID":"SID104183907","Kc cell number, rep 1":1.46e6,"Kc cell number, rep 2":1.52e6,"S2R+ cell number, rep 1":1.33e6,"S2R+ cell number, rep 2":1.37e6}
{"Target gene":"CG18128","PubChem SID":"SID104184096","Kc cell number, rep 1":1.56e6,"Kc cell number, rep 2":1.63e6,"S2R+ cell number, rep 1":1.37e6,"S2R+ cell number, rep 2":1.47e6}
{"Target gene":"Nrk","PubChem SID":"SID104187272","Kc cell number, rep 1":1.57e6,"Kc cell number, rep 2":1.55e6,"S2R+ cell number, rep 1":1.18e6,"S2R+ cell number, rep 2":1.32e6}
{"Target gene":"Phm","PubChem SID":"SID104184431","Kc cell number, rep 1":1.48e6,"Kc cell number, rep 2":1.54e6,"S2R+ cell number, rep 1":1.16e6,"S2R+ cell number, rep 2":1.13e6}

Just “Kc cell number, rep 1”, for 2 of the entries above:
vnc + CG42455 [SID104189659] = 1.12e6
MFS1 [SID104183907] = 1.46e6
